Source: the supplement of paper PMC10849652
The list shows a part of the results.

Sequences of proteins named here, by UniProt entry; tags and fusion partners are left off. A change or cut given only in a name is not applied to a line headed by its entry.
UniProt P39880: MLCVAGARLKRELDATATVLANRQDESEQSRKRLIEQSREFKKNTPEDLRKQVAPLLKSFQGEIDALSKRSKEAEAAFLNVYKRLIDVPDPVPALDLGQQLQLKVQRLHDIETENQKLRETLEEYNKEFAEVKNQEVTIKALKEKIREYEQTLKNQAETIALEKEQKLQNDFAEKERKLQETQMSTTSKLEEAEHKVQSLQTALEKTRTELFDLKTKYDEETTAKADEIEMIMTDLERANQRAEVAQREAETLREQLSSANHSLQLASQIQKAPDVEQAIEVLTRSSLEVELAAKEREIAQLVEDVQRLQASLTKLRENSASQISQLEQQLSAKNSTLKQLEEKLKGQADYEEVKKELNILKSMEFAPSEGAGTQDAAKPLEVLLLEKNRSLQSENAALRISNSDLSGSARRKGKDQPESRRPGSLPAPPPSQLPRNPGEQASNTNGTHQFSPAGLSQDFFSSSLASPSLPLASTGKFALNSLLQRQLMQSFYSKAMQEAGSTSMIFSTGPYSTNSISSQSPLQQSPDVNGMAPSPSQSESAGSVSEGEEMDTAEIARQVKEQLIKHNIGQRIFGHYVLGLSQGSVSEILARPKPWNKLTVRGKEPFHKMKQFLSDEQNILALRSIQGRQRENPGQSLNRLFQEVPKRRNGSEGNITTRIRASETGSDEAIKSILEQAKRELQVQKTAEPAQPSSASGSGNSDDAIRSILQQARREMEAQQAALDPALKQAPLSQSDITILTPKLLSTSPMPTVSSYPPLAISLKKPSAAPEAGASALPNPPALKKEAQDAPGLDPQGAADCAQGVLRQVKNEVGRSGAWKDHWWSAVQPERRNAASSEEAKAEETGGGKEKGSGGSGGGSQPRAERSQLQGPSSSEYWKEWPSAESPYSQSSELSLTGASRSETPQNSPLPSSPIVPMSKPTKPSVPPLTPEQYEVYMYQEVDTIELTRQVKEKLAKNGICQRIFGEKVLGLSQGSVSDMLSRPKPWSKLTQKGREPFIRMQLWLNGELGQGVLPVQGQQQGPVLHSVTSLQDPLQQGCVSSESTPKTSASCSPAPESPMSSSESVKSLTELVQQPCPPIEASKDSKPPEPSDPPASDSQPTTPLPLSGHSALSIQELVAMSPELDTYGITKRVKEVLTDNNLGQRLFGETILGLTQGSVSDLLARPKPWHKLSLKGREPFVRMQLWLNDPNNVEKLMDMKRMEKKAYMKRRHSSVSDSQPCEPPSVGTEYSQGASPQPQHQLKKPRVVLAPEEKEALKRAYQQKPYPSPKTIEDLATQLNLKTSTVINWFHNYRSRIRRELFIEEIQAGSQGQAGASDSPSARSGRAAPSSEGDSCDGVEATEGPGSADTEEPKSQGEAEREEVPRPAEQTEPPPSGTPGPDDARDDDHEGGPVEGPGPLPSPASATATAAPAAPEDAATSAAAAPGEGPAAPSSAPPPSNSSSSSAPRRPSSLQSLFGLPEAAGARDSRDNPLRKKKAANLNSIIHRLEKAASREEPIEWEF
UniProt P46108: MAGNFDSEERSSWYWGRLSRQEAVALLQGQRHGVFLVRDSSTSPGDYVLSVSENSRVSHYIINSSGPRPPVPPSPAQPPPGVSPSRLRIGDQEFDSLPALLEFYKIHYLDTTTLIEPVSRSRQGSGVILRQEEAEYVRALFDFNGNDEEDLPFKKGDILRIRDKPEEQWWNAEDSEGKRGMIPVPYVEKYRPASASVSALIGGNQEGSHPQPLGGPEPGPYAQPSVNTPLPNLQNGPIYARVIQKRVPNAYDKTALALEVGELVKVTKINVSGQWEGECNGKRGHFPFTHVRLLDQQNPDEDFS
UniProt P26232: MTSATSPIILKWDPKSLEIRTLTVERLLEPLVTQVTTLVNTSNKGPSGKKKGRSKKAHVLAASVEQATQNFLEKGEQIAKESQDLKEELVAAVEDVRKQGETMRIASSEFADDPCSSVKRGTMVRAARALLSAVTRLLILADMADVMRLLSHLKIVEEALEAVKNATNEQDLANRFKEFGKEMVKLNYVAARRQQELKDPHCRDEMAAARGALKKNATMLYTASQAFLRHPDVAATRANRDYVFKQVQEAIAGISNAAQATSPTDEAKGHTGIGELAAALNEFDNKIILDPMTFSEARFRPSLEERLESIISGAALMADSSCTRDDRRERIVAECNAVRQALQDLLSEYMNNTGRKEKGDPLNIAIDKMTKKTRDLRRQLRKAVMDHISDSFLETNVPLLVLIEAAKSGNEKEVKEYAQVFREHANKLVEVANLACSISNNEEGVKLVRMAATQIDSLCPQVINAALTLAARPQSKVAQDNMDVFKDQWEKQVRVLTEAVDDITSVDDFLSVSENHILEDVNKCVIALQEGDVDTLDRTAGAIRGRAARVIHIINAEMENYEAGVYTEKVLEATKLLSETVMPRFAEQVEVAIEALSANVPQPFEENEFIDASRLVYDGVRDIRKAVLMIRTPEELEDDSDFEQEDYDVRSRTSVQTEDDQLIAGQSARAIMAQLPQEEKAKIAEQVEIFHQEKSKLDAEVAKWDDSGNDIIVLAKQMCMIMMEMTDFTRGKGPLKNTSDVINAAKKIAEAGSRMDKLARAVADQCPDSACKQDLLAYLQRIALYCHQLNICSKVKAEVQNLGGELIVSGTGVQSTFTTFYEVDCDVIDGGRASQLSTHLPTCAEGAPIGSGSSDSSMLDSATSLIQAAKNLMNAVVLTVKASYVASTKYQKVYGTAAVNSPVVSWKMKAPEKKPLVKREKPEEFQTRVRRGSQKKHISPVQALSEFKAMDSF
UniProt Q8IUI8: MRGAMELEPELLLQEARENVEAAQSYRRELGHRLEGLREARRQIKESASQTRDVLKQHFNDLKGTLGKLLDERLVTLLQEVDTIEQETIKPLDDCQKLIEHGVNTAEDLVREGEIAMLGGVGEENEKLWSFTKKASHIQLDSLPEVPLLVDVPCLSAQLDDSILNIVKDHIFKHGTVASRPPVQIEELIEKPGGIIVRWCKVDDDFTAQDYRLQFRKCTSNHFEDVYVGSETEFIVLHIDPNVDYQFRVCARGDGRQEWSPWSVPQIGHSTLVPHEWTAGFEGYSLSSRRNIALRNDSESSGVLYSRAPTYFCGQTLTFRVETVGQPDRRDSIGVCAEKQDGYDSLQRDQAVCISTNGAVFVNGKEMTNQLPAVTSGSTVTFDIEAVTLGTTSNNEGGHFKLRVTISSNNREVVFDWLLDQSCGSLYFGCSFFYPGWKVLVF
UniProt P17812: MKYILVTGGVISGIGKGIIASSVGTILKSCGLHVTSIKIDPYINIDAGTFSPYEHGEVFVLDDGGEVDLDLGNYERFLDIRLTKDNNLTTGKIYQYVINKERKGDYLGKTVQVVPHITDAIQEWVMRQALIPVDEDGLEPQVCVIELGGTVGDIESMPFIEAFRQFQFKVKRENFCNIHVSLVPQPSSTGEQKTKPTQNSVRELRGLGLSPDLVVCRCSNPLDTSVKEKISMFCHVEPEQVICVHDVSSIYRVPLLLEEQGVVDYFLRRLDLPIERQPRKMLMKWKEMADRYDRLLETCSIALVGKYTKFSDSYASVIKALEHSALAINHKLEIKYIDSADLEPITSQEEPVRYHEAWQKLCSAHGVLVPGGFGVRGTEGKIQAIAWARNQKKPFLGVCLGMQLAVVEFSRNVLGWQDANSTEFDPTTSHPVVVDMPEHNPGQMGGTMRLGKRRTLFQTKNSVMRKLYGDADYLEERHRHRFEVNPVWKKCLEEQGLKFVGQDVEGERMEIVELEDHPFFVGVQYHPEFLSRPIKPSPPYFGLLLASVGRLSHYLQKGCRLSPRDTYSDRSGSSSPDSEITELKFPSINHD
UniProt P48729: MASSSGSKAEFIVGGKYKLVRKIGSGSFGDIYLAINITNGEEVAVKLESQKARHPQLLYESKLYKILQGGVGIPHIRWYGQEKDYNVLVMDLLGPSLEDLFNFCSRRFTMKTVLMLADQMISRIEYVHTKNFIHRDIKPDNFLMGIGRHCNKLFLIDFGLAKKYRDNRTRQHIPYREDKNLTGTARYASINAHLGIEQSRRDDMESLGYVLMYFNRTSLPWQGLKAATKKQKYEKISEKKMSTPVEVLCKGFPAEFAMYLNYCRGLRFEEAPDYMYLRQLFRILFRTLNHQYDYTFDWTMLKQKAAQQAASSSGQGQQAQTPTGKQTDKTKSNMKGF
UniProt P33240: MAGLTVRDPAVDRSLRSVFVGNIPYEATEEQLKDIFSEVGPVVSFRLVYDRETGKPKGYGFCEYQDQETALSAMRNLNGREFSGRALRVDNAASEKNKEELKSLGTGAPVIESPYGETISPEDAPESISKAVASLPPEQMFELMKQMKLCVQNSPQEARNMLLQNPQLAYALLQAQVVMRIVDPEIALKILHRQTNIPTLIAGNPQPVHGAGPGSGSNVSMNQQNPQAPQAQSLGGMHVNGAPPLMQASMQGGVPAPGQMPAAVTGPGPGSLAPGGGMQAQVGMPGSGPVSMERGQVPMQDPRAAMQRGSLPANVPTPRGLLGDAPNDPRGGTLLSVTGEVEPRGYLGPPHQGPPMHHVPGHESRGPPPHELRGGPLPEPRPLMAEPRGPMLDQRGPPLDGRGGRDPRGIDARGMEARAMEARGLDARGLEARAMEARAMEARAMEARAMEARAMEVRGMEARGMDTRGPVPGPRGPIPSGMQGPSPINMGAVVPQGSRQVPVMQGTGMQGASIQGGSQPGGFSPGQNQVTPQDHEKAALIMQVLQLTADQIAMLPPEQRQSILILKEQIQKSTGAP
UniProt Q9NTM9: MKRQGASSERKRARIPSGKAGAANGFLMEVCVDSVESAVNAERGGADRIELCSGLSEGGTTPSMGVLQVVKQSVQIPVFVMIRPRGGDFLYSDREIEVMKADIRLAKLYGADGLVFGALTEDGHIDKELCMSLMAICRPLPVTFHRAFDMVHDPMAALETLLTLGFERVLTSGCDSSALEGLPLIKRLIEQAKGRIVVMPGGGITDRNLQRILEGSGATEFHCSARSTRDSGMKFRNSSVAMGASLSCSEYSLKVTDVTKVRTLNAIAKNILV
UniProt Q69YN2: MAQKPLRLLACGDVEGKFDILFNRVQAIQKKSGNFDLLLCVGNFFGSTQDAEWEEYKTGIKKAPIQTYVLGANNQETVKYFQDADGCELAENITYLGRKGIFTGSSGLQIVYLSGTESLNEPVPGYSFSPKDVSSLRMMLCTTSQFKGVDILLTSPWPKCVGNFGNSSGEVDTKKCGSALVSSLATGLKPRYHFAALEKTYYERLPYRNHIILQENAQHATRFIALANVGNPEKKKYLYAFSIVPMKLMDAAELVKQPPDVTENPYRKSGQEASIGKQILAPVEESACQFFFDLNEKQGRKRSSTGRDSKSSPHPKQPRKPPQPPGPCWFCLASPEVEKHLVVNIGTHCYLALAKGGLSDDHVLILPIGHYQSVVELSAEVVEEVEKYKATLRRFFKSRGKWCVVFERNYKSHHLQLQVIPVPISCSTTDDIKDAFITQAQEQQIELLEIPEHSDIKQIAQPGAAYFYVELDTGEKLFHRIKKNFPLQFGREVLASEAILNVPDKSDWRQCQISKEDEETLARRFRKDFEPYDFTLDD
UniProt Q9P021, whole entry, looked up: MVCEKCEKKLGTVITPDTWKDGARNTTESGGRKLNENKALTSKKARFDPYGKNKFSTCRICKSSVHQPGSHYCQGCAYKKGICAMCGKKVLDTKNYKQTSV
UniProt Q6UX04: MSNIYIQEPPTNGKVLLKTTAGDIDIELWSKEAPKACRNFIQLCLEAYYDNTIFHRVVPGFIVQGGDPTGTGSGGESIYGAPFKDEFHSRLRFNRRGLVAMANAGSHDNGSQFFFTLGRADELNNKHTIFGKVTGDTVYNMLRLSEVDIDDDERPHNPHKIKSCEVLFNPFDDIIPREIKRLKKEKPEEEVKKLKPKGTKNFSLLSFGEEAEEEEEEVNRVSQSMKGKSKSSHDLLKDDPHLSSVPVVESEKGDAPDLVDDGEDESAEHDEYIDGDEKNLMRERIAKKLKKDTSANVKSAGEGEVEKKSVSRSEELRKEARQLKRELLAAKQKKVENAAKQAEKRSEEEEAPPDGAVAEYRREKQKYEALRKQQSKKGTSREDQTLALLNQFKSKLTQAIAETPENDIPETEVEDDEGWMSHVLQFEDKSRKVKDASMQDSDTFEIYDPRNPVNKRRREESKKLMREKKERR
UniProt P49674: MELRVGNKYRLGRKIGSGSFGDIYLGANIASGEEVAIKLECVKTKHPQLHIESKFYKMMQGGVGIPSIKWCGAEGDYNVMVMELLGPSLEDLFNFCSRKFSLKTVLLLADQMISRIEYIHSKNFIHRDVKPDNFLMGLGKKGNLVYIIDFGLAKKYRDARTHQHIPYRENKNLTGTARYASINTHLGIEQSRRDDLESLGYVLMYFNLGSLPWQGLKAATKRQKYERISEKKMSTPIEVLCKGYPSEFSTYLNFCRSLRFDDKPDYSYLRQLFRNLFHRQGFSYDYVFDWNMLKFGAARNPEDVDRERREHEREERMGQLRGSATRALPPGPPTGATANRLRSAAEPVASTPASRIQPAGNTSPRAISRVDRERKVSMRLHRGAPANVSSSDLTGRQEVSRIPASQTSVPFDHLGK

What was measured:
Assay in all cases: log2 fold change, soluble protein after heating vs DMSO (PISA); higher = thermal stabilisation; K562 lysate, 10 uM; active = over 0.2 and 3.5 SD of the protein, either way, in both replicates (recomputed)
lapatinib = compound: CS(=O)(=O)CCNCc1ccc(-c2ccc3ncnc(Nc4ccc(OCc5cccc(F)c5)c(Cl)c4)c3c2)o1 [lapatinib]
Outline: (§1)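 Pellets of K562 cells were dounce-homogenised in PBS pH 7.4 with 1 mM MgCl2, and the crude extract was held at 1 mg/mL protein for a 30 min treatment with 10 μM compound. Aliquots were heated for 3 min over 48°C-58°C and pooled before NP-40 was added to 0.5% at 4°C. The supernatant from 21,000xg for 90 min was quantified by TMTpro 16plex LC-MS/MS with channel sums equalised. Values are reported from duplicates as log-two fold change in thermal stability relative to solvent controls.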

pictilisib = compound: CS(=O)(=O)N1CCN(Cc2cc3nc(-c4cccc5[nH]ncc45)nc(N4CCOCC4)c3s2)CC1 [pictilisib]
Outline: as §1

crizotinib = compound: C[C@@H](Oc1cc(-c2cnn(C3CCNCC3)c2)cnc1N)c1c(Cl)ccc(F)c1Cl [crizotinib]
Outline: as §1

[1] = compound: C[C@H](C1=CC=C(C=C1)C(=O)NC2=C3C=CNC3=NC=C2)N
Outline: as §1

duvelisib = compound: C[C@H](Nc1ncnc2nc[nH]c12)c1cc2cccc(Cl)c2c(=O)n1-c1ccccc1 [duvelisib]
Outline: as §1

gandotinib = compound: Cc1cc(Nc2cc(CN3CCOCC3)c3nc(C)c(Cc4ccc(Cl)cc4F)n3n2)n[nH]1 [gandotinib]
Outline: as §1

tozasertib = compound: Cc1cc(Nc2cc(N3CCN(C)CC3)nc(Sc3ccc(NC(=O)C4CC4)cc3)n2)n[nH]1 [tozasertib]
Outline: as §1

doramapimod = compound: Cc1ccc(-n2nc(C(C)(C)C)cc2NC(=O)Nc2ccc(OCCN3CCOCC3)c3ccccc23)cc1 [doramapimod]
Outline: as §1

bafetinib = compound: Cc1ccc(NC(=O)c2ccc(CN3CC[C@H](N(C)C)C3)c(C(F)(F)F)c2)cc1Nc1nccc(-c2cncnc2)n1 [bafetinib]
Outline: as §1

[2] = compound: Cc1cccc(CC(=O)N2CCc3c2ccc(-c2cn(C)c4ncnc(N)c24)c3F)n1
Outline: as §1

nilotinib = compound: Cc1cn(-c2cc(NC(=O)c3ccc(C)c(Nc4nccc(-c5cccnc5)n4)c3)cc(C(F)(F)F)c2)cn1 [nilotinib]
Outline: as §1

[3] = compound: Cc1nc(Nc2n[nH]c3c2CN(C(=O)N[C@H](CN(C)C)c2ccccc2)C3(C)C)c2sccc2n1
Outline: as §1

dasatinib = compound: Cc1nc(Nc2ncc(C(=O)Nc3c(C)cccc3Cl)s2)cc(N2CCN(CCO)CC2)n1 [dasatinib]
Outline: as §1

[4] = compound: Cc1ncc(-c2ccnc(Nc3ccc(S(C)(=O)=O)cc3)n2)n1C(C)C
Outline: as §1

[5] = compound: Cn1cc(-c2ccc3c(c2)CCN3C(=O)Cc2cccc(C(F)(F)F)c2)c2c(N)ncnc21
Outline: as §1

quisinostat = compound: Cn1cc(CNCC2CCN(c3ncc(C(=O)NO)cn3)CC2)c2ccccc21 [quisinostat]
Outline: as §1

tipifarnib = compound: Cn1cncc1[C@@](N)(c1ccc(Cl)cc1)c1ccc2c(c1)c(-c1cccc(Cl)c1)cc(=O)n2C [tipifarnib]
Outline: as §1

[6] = compound: NC(=O)Nc1cc(-c2cccc(F)c2)sc1C(=O)N[C@H]1CCCNC1
Outline: as §1

[7] = compound: NC(=O)c1cnc(N[C@@H]2CCCC[C@@H]2N)nc1Nc1cccc(-n2nccn2)c1
Outline: as §1

[8] = compound: NC1(c2ccc(-c3nc4ccn5c(=O)[nH]nc5c4cc3-c3ccccc3)cc2)CCC1
Outline: as §1

Measured: log2 fold change

CUX1 isoform 3 (UniProt P39880)
inactive: lapatinib -0.01 | pictilisib -0.045 | crizotinib 0.004 | [1] 0.076 | duvelisib 0.007 | gandotinib -0.116 | tozasertib 0.032 | doramapimod -0.025 | bafetinib -0.012 | [2] 0.007 | nilotinib -0.029 | [3] 0.026 | dasatinib -0.04 | [4] 0.012 | [5] 0.006 | quisinostat -0.02 | tipifarnib -0.057 | [6] 0.006 | [7] 0.03 | [8] -0.015

CRK (UniProt P46108)
inactive: lapatinib -0.026 | pictilisib -0.031 | crizotinib -0.045 | [1] -0.011 | duvelisib 0.005 | gandotinib 0.044 | tozasertib 0.053 | doramapimod 0.009 | bafetinib -0.015 | [2] -0.016 | nilotinib 0.005 | [3] -0.001 | dasatinib 0.024 | [4] -0.018 | [5] -0.014 | quisinostat -0.078 | tipifarnib 0.011 | [6] 0.024 | [7] 0.011 | [8] -0.009

CTNNA2 (UniProt P26232)
inactive: lapatinib -0.023 | pictilisib -0.006 | crizotinib -0.024 | [1] -0.118 | duvelisib 0.035 | gandotinib 0.042 | tozasertib 0.007 | doramapimod 0.009 | bafetinib -0.062 | [2] 0.059 | nilotinib 0.05 | [3] 0.069 | dasatinib -0.035 | [4] 0.038 | [5] -0.019 | quisinostat 0.024 | tipifarnib 0 | [6] -0.05 | [7] 0.003 | [8] -0.008

CTSZ (UniProt Q9UBR2)
inactive: lapatinib -0.017 | pictilisib 0.01 | crizotinib 0.02 | [1] -0.058 | duvelisib 0.097 | gandotinib 0.027 | tozasertib 0.018 | doramapimod 0.048 | bafetinib 0.023 | [2] 0.039 | nilotinib -0.047 | [3] 0.003 | dasatinib 0.03 | [4] -0.037 | [5] 0.036 | quisinostat -0.025 | tipifarnib -0.046 | [6] 0.009 | [7] 0 | [8] -0.012

CYB5R1 (UniProt Q9UHQ9)
inactive: lapatinib 0.009 | pictilisib -0.071 | crizotinib -0.008 | [1] 0.036 | duvelisib 0.031 | gandotinib -0.073 | tozasertib -0.046 | doramapimod -0.022 | bafetinib 0.117 | [2] 0.036 | nilotinib 0.059 | [3] -0.033 | dasatinib -0.025 | [4] 0.004 | [5] 0.031 | quisinostat 0.036 | tipifarnib -0.072 | [6] 0.094 | [7] 0.013 | [8] -0.029

CRLF3 (UniProt Q8IUI8)
inactive: lapatinib 0.007 | pictilisib -0.008 | crizotinib -0.028 | [1] -0.036 | duvelisib -0.017 | gandotinib 0.048 | tozasertib -0.021 | doramapimod 0.024 | bafetinib -0.015 | [2] 0.096 | nilotinib -0.006 | [3] -0.008 | dasatinib 0.005 | [4] 0.012 | [5] -0.018 | quisinostat -0.061 | tipifarnib 0.013 | [6] -0.002 | [7] 0.01 | [8] -0.055

CTPS1 (UniProt P17812)
inactive: lapatinib -0.007 | pictilisib -0.015 | crizotinib -0.044 | [1] 0.004 | duvelisib -0.003 | gandotinib -0.052 | tozasertib -0.004 | doramapimod 0.005 | bafetinib 0.078 | [2] 0.015 | nilotinib 0.009 | [3] -0.005 | dasatinib -0.058 | [4] 0.011 | [5] 0.026 | quisinostat -0.019 | tipifarnib -0.015 | [6] 0.028 | [7] 0.002 | [8] -0.004

CTU1 (UniProt Q7Z7A3)
inactive: lapatinib 0.011 | pictilisib 0.013 | crizotinib -0.037 | [1] -0.003 | duvelisib -0.011 | gandotinib -0.003 | tozasertib 0.02 | doramapimod 0.015 | bafetinib 0.042 | [2] 0.013 | nilotinib -0.019 | [3] 0.009 | dasatinib -0.04 | [4] 0.027 | [5] -0.004 | quisinostat -0.098 | tipifarnib 0.016 | [6] 0.019 | [7] -0.012 | [8] 0.006

CSNK1A1 (UniProt P48729)
inactive: lapatinib -0.099 | pictilisib 0.084 | crizotinib -0.049 | [1] 0.084 | duvelisib -0.034 | gandotinib -0.077 | tozasertib -0.068 | doramapimod 0.027 | bafetinib 0 | [2] -0.01 | nilotinib -0.04 | [3] 0.045 | dasatinib 0.088 | [4] 0.123 | [5] -0.039 | quisinostat -0.04 | tipifarnib -0.019 | [6] 0.197 | [7] 0.018 | [8] -0.07

CSTF2 (UniProt P33240)
inactive: lapatinib -0.006 | pictilisib -0.049 | crizotinib 0.003 | [1] -0.025 | duvelisib 0.044 | gandotinib 0.051 | tozasertib 0.033 | doramapimod 0.036 | bafetinib 0.03 | [2] -0.001 | nilotinib 0.031 | [3] 0.038 | dasatinib 0.03 | [4] -0.017 | [5] -0.029 | quisinostat 0.033 | tipifarnib -0.021 | [6] -0.013 | [7] -0.007 | [8] 0.052

CUTC (UniProt Q9NTM9)
inactive: lapatinib 0 | pictilisib -0.002 | crizotinib 0.034 | [1] -0.028 | duvelisib 0.016 | gandotinib 0.009 | tozasertib 0.016 | doramapimod 0.001 | bafetinib -0.003 | [2] 0.031 | nilotinib -0.052 | [3] 0.048 | dasatinib 0.025 | [4] 0 | [5] 0.036 | quisinostat -0.019 | tipifarnib 0.018 | [6] -0.007 | [7] 0.003 | [8] -0.029

Two consecutive entries already listed:
CTU1 (UniProt Q7Z7A3)
inactive: lapatinib 0.011 | pictilisib 0.013 | crizotinib -0.037 | [1] -0.003 | duvelisib -0.011 | gandotinib -0.003 | tozasertib 0.02 | doramapimod 0.015 | bafetinib 0.042 | [2] 0.013 | nilotinib -0.019 | [3] 0.009 | dasatinib -0.04 | [4] 0.027 | [5] -0.004 | quisinostat -0.098 | tipifarnib 0.016 | [6] 0.019 | [7] -0.012 | [8] 0.006

CSNK1A1 (UniProt P48729)
inactive: lapatinib -0.099 | pictilisib 0.084 | crizotinib -0.049 | [1] 0.084 | duvelisib -0.034 | gandotinib -0.077 | tozasertib -0.068 | doramapimod 0.027 | bafetinib 0 | [2] -0.01 | nilotinib -0.04 | [3] 0.045 | dasatinib 0.088 | [4] 0.123 | [5] -0.039 | quisinostat -0.04 | tipifarnib -0.019 | [6] 0.197 | [7] 0.018 | [8] -0.07

Carrying on:

CWF19L1 (UniProt Q69YN2)
inactive: lapatinib 0.004 | pictilisib -0.012 | crizotinib 0.026 | [1] 0.022 | duvelisib 0.045 | gandotinib -0.029 | tozasertib 0.042 | doramapimod 0.003 | bafetinib 0 | [2] -0.038 | nilotinib -0.004 | [3] 0.042 | dasatinib 0 | [4] -0.045 | [5] -0.027 | quisinostat 0.039 | tipifarnib 0.037 | [6] 0 | [7] 0.007 | [8] 0.011

CRIPT (UniProt Q9P021)
inactive: lapatinib 0.15 | pictilisib -0.128 | crizotinib 0 | [1] 0.02 | duvelisib 0.016 | gandotinib 0.022 | tozasertib 0.009 | doramapimod -0.027 | bafetinib -0.17 | [2] -0.049 | nilotinib 0.021 | [3] -0.003 | dasatinib -0.019 | [4] 0.006 | [5] -0.002 | quisinostat 0.039 | tipifarnib 0.025 | [6] -0.112 | [7] -0.042 | [8] -0.003

CWC27 (UniProt Q6UX04)
inactive: lapatinib 0.004 | pictilisib -0.003 | crizotinib -0.022 | [1] 0.023 | duvelisib -0.054 | gandotinib -0.032 | tozasertib -0.016 | doramapimod 0.013 | bafetinib -0.021 | [2] -0.008 | nilotinib -0.024 | [3] -0.001 | dasatinib -0.041 | [4] -0.03 | [5] -0.012 | quisinostat -0.023 | tipifarnib 0.02 | [6] 0.02 | [7] 0.006 | [8] 0.005

CRTAP (UniProt O75718)
inactive: lapatinib -0.011 | pictilisib -0.032 | crizotinib 0.071 | [1] 0.081 | duvelisib -0.019 | gandotinib -0.086 | tozasertib 0.016 | doramapimod -0.021 | bafetinib 0.138 | [2] -0.058 | nilotinib -0.009 | [3] -0.025 | dasatinib 0.015 | [4] -0.004 | [5] 0.052 | quisinostat 0.104 | tipifarnib -0.077 | [6] -0.023 | [7] -0.008 | [8] 0.06

CSNK1E (UniProt P49674)
inactive: lapatinib -0.026 | pictilisib 0.103 | crizotinib 0.004 | [1] 0.135 | duvelisib -0.016 | gandotinib -0.134 | tozasertib -0.065 | doramapimod 0.003 | bafetinib -0.024 | [2] -0.061 | nilotinib -0.025 | [3] -0.008 | dasatinib 0.053 | [4] 0.091 | [5] -0.078 | quisinostat -0.075 | tipifarnib -0.092 | [6] 0.059 | [7] 0.055 | [8] -0.06
